Results are given in words; binding and its absence hold for the method and conditions named. Binding can be weak; no strength is given. For some assays here: Binding seen in cells or lysates may run through a third protein.

Chains of the proteins cited; added tags and fusions are not shown. Lines headed by an entry give the natural chain unless they say otherwise; changes in a name come on top. Residues count along the entry.
UniProt P46109: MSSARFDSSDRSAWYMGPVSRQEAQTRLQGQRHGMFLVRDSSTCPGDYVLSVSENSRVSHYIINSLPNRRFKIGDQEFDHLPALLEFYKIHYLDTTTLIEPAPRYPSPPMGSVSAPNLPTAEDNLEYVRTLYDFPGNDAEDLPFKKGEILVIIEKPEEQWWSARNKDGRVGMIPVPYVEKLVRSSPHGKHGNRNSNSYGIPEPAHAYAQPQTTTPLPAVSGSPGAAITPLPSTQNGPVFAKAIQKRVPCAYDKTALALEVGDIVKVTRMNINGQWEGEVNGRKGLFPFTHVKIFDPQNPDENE
UniProt P06239: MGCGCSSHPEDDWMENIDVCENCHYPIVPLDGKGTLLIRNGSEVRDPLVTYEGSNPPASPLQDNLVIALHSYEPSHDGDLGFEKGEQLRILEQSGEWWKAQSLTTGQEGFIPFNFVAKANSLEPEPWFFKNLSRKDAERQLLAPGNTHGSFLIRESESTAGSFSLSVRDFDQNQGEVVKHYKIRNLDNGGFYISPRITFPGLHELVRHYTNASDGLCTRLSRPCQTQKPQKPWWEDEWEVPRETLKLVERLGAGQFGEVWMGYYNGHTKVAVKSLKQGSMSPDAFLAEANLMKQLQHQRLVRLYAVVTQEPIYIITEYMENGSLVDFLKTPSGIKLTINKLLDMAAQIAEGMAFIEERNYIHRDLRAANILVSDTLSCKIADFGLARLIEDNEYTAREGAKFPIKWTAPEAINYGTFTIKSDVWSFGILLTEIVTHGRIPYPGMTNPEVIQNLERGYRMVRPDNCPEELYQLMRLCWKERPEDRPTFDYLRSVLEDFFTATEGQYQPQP
UniProt P42684, residues 107-167: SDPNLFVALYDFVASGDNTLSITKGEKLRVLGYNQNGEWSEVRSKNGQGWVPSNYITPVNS
UniProt Q06187, residues 214-274: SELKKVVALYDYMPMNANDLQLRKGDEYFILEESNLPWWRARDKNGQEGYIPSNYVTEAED
UniProt Q9Y5X1, residues 1-62: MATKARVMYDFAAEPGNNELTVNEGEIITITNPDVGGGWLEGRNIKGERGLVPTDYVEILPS
UniProt Q9NYB9, residues 451-510: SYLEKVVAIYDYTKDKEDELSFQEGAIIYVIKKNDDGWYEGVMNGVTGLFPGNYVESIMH
UniProt Q9UKW4: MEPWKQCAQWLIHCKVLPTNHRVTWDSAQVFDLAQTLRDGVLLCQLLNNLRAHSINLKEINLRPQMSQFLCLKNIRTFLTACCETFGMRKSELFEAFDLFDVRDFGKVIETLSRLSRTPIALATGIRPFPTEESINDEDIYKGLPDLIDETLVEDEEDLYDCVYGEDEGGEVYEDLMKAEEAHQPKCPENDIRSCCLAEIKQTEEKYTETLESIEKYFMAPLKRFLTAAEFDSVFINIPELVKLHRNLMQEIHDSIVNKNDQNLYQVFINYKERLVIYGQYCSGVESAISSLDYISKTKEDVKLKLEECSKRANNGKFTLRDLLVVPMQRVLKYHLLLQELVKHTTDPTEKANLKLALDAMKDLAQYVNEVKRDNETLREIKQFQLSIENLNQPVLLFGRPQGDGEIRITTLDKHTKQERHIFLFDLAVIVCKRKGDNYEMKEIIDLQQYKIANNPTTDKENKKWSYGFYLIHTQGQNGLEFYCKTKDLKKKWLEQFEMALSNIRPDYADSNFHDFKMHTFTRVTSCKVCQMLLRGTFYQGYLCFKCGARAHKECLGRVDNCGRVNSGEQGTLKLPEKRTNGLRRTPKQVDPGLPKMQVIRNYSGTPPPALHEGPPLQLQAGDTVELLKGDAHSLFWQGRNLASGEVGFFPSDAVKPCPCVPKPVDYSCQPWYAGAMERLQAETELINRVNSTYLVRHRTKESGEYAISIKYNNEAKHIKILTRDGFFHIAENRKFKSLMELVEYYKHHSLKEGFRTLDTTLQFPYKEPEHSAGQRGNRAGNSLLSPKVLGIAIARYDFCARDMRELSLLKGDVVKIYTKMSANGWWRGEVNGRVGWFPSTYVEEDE
UniProt P19878: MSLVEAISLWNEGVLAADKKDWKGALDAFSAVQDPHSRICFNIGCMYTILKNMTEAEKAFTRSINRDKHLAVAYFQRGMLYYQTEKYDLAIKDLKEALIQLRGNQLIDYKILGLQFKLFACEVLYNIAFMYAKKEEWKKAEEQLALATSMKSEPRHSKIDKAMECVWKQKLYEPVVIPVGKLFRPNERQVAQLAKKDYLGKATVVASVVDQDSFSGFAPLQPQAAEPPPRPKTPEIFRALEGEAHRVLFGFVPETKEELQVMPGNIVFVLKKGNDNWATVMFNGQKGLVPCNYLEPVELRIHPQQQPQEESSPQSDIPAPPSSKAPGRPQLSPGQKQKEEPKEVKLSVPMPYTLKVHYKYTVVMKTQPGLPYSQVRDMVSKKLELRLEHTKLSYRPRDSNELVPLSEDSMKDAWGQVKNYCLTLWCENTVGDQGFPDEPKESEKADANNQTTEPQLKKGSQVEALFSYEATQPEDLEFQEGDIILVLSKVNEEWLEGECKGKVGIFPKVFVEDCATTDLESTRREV
UniProt Q99961, residues 306-365: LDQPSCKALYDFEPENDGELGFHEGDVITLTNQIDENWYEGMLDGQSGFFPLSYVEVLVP
UniProt P15498: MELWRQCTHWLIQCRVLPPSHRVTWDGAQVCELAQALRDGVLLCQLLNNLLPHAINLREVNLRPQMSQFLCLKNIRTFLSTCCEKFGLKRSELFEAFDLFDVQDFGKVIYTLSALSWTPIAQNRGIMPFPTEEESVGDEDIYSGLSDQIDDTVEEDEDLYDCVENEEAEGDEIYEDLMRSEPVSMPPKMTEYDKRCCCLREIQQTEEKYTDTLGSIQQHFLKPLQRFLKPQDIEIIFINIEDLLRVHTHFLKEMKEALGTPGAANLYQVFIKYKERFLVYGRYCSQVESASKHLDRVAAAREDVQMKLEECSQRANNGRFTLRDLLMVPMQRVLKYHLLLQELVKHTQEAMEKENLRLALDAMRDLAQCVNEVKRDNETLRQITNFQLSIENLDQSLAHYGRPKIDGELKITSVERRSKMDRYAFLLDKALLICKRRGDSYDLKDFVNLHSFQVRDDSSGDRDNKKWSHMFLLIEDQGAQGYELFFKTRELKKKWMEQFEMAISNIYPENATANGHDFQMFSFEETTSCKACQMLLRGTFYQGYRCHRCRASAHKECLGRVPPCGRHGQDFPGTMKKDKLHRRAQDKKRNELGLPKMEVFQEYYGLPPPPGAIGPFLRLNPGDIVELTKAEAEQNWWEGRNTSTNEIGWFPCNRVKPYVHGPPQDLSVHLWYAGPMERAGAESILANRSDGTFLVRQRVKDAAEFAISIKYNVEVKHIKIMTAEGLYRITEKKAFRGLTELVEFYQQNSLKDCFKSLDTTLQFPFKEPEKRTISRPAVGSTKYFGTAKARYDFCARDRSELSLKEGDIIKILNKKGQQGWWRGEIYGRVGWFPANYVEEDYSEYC
UniProt Q14247, residues 492-550: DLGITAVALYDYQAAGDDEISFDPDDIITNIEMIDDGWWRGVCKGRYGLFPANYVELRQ
UniProt Q92968, residues 272-336: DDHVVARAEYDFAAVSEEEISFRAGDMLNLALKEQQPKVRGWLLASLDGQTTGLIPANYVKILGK
UniProt Q15700, residues 536-606: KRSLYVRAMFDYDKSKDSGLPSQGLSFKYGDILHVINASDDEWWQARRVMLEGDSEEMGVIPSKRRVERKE
UniProt O60504: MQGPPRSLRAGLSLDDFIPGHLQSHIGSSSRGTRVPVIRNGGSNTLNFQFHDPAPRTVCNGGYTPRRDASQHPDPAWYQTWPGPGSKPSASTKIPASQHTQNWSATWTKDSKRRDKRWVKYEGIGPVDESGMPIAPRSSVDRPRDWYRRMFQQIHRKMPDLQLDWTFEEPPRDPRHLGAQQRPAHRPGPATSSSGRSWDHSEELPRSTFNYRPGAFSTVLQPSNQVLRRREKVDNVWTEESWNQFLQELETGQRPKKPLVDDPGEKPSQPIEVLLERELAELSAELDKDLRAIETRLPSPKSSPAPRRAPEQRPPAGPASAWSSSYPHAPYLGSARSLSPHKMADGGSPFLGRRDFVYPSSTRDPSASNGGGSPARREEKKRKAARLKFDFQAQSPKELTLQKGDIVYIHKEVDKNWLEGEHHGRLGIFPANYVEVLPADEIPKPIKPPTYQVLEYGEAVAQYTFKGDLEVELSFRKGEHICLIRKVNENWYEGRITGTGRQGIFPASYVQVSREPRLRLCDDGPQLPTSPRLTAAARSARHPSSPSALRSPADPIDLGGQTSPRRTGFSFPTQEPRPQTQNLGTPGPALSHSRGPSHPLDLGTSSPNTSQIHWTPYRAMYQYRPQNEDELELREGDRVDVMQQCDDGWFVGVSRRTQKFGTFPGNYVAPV
UniProt Q92783, residues 210-269: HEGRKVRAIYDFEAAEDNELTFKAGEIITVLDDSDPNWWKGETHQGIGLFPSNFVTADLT
UniProt P42680, residues 179-239: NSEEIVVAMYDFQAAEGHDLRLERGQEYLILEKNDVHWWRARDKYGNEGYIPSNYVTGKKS
UniProt Q8IZP0: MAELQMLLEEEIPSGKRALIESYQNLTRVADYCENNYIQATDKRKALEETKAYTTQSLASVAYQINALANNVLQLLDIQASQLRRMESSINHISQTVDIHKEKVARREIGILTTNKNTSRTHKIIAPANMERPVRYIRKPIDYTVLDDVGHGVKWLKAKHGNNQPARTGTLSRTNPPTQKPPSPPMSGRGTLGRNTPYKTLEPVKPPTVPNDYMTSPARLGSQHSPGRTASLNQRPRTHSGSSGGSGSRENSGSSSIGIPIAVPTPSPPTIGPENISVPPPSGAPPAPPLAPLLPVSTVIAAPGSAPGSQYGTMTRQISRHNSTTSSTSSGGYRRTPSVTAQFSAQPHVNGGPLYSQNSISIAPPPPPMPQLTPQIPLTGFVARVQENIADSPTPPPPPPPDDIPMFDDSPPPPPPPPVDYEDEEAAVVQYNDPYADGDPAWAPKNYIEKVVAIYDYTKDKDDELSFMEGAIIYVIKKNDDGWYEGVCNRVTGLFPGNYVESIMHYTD
UniProt Q05397: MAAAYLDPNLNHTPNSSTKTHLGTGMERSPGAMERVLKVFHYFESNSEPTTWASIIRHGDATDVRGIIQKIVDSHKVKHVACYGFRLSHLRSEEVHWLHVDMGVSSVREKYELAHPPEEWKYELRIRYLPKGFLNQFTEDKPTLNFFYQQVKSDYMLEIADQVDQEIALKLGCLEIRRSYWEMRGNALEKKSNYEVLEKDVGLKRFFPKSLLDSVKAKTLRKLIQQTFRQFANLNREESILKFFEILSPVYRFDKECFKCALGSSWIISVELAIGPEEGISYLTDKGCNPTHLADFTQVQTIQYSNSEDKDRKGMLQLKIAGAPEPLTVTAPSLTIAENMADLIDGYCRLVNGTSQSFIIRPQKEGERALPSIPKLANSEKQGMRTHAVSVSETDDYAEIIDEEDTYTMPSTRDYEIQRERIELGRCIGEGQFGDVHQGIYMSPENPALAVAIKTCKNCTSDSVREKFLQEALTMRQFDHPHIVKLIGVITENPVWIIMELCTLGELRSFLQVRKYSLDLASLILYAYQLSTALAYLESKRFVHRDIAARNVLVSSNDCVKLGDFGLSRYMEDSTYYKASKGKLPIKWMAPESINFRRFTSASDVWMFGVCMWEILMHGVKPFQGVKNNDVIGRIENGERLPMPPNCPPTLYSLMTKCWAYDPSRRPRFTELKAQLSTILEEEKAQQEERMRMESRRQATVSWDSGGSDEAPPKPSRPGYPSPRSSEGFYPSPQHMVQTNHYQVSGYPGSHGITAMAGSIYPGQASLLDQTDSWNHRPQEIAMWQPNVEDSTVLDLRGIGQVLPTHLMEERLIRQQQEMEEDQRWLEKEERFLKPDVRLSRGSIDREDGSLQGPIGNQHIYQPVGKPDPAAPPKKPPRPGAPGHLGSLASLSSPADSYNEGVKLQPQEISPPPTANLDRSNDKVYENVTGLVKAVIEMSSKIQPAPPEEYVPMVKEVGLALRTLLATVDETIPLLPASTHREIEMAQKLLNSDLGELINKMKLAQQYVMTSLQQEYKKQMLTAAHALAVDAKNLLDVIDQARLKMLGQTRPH

Test [1] deals with C3G (endogenous, isoform not told in the immunoprecipitations) (human (endogenous in K562)) (UniProt Q13905). The test is described as follows: co-IP; endogenous proteins immunoprecipitated from precleared K562 whole cell lysates (GammaBind G Sepharose), immunoblot; in Figures 5A and 6E cells cultured on 10 ug/ml fibronectin for 24 h; in Figure 6E shC3G or shCT clones.
Test [2] addresses p38α MAPK (human (endogenous in K562)) (UniProt Q16539). Described as above.
Test [3] deals with CrkL (human (endogenous in K562)) (UniProt P46109). The description is as above.
The target of test [4] is LCK SH3 domain (SH3 domain array) (UniProt P06239). The test is described as follows: peptide or protein array; Panomics SH3 Domain Arrays I and II: immobilised SH3 domains fused to GST, hybridised with purified N-terminally His-tagged SH3-b domain, detected with peroxidase-conjugated anti-His antibody and ECL; both purified.
Test [5] concerns the target SPCN SH3 domain (SH3 domain array) (UniProt Q13813). Described as above.
The target of test [6] is Abl2 (ARG) SH3 domain (SH3 domain arrays) (UniProt P42684). Described as above.
The target of test [7] is Abl SH3 domain (SH3 domain array) (UniProt P00519). Described as above.
The target of test [8] is BTK SH3 domain (SH3 domain array) (UniProt Q06187). The description is as above.
For test [9], the target named is SNX9 SH3 domain (SH3 domain array) (UniProt Q9Y5X1). The test is described as above.
Test [10] addresses T1, TXK SH3 domain (SH3 domain array) (UniProt P42681).
T1 sequence: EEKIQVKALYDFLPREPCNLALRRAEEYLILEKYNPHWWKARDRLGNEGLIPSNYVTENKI
The description is as above.

For test [11], the target named is VAV2-D2 SH3 domain (SH3 domain array) (UniProt P52735). The description is as above.
In test [12] the target is T2, Itk SH3 domain (SH3 domain array) (UniProt Q08881).
T2 sequence: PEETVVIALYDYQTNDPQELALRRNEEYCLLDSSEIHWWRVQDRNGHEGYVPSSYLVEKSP
The test is described as above.

The target in test [13] is T3, PIG2 SH3 domain (SH3 domain array) (UniProt P16885).
T3 sequence: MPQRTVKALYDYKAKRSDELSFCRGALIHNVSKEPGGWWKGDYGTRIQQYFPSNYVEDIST
The test is described as above.

Test [14] addresses Abi2-SH3 domain (AbI2B) (SH3 domain array) (UniProt Q9NYB9). The test is described as above.
The target in test [15] is T4, OSF SH3 domain (SH3 domain array) (UniProt Q92882).
T4 sequence: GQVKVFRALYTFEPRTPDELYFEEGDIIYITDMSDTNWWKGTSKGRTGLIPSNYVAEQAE
The test is described as above.

For test [16], the target named is VAV3-D2 SH3 domain (SH3 domain array) (UniProt Q9UKW4). The description is as above.
Test [17] deals with NOF2-D1 SH3 domain (SH3 domain arrays) (UniProt P19878). Described as above.
Test [18] deals with SH3-1 (SH3-containing GRB2-like protein 1) SH3 domain (SH3 domain array) (UniProt Q99961). Described as above.
In test [19] the target is VAV-D1 SH3 domain (SH3 domain array) (UniProt P15498). Described as above.
Test [20] deals with cortactin SH3 domain (SH3 domain array) (UniProt Q14247). Described as above.
Test [21] addresses PEXD SH3 domain (SH3 domain array) (UniProt Q92968). Described as above.
For test [22], the target named is T5, M3KA SH3 domain (SH3 domain array) (UniProt Q02779).
T5 sequence: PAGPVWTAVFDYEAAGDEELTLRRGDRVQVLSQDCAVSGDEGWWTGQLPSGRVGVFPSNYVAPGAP
The test is described as above.

The target of test [23] is Dlg2 SH3 domain (SH3 domain array) (UniProt Q15700). The test is described as above.
The target of test [24] is VINE-D3 SH3 domain (SH3 domain array) (UniProt O60504). The test is described as above.
Test [25] concerns the target Stam SH3 domain (SH3 domain array) (UniProt Q92783). Described as above.
The target of test [26] is PI3α SH3 domain (SH3 domain array) (UniProt P27986). Described as above.
The target in test [27] is Tec SH3 domain (SH3 domain array) (UniProt P42680). Described as above.

Consider Abi1 (from UniProt Q8IZP0 1-508), for which the binding entry in test [1] is on record as “binds”.
“C3G (endogenous, isoform not told in the immunoprecipitations) (from UniProt Q13905)”: the binding result in test [2] and in test [3] was “binds” in each case.
On to CrkL (from UniProt P46109 1-303), for which the binding entry in test [1] was “binds weakly”.
Still for that read-out and setting: in the case of FAK (from UniProt Q05397 1-1052) it was “binds”.
“His-tagged-Cbl-SH3-b domain (from UniProt P22681) (domain or fragment)”: the binding entry in test [4], in test [5], in [6], in test [7], in [8] and in [9] was “binds” each time. Further, the binding result in test [10], in test [11], in [12], in [13], in [14] and in [15] was “binds” throughout. The binding entry in test [16], in test [17], in test [18], in test [19], in [20] and in test [21] was “binds” each time. Besides, the binding result in test [22], in test [23], in test [24], in [25], in [26] and in test [27] was “binds” each time.
Turning to p38α MAPK (from UniProt Q16539 1-360), the binding result in [1] is recorded as “binds”.
Consider paxillin (from UniProt P49023 1-591), for which, in test [1], the binding result is “binds”.
Same read-out and setting: in the case of “phospho-paxillin p68 isoform (from UniProt P49023 1-591)” it was “binds”.

Source of the values: PMC3629710.
